# Reference: PubChem BioAssay (NCATS)
# The chains behind the UniProt entries cited, without tags or fusion partners. Where a name states a change or a piece, a line headed by the entry shows the natural chain unless it says otherwise.
# UniProt P07947, whole entry, looked up: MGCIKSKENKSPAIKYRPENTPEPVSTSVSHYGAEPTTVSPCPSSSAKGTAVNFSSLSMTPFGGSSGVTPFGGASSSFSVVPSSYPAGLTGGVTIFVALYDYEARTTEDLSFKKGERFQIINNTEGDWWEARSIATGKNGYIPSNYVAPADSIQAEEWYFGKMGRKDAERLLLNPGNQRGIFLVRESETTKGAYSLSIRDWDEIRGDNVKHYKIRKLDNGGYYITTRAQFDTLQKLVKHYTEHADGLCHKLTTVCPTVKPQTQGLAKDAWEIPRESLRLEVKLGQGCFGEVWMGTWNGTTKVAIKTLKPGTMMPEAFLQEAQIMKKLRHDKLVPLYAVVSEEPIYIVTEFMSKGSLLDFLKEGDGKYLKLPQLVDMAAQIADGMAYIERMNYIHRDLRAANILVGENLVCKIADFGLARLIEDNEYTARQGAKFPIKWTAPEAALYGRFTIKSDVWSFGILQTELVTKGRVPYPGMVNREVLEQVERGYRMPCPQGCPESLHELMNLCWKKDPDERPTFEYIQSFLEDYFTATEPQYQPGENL
# UniProt P15289: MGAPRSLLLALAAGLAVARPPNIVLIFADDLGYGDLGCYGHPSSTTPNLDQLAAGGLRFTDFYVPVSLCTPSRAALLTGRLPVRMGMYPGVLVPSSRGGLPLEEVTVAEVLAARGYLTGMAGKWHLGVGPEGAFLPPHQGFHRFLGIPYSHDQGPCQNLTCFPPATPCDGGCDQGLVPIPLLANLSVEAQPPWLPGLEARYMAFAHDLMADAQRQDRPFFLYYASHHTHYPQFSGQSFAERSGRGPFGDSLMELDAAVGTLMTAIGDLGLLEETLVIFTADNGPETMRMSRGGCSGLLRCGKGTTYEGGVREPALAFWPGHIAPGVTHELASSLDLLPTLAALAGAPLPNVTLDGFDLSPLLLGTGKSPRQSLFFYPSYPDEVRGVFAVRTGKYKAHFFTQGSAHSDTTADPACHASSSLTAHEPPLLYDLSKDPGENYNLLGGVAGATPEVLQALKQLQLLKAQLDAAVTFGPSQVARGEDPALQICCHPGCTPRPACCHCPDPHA
# UniProt P51449: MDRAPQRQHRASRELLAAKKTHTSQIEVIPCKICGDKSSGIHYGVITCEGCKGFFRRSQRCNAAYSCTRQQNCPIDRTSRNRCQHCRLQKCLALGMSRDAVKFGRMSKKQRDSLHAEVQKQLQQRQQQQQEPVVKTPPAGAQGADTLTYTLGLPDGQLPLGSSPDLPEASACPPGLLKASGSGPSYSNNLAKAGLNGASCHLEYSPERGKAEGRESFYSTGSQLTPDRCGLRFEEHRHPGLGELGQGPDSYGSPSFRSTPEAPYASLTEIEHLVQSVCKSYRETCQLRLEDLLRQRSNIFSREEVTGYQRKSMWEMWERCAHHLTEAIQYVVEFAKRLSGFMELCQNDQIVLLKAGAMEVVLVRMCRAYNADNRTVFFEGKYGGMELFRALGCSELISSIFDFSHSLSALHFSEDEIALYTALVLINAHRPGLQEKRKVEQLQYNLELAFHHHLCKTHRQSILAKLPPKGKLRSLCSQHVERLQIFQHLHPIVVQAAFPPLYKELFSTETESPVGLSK
# Inconclusive results, whose numbers are uncertain, are shown with a selection of clear calls. For some assays here: A potency beside an inconclusive call is a rough fit, not a confirmed value. For some assays here: “Side channel” marks fits to a control or component signal instead of the main read-out. Activity calls are given as the source filed them. Unless noted, the call rests on the fitted dose curve; in most records, active means well fitted curve in the direction sought with a large enough effect; inconclusive means small, poorly fitted or top-dose-only effect, or another doubt; inactive means no such curve, though single readings can be large; an effect the other way counts as inactive or inconclusive.
# Legend:
# [1] = Cell Proliferation Assay against the TMD8 Cell Line (Caspase readout at 16 hrs) (AID 651712); further: potency means the concentration at half of the fitted maximal effect
# How it was run: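 TMD8 cells in RPMI with 5% FBS were treated with compound for 16 h at 37 C, then caspase 3/7 activation was read by Caspase-Glo luminescence. Percent activity was scaled to DMSO (0%) and 9.2 uM bortezomib final (100%).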
# [2] = Cell Proliferation Assay against the TMD8 Cell Line (Caspase readout at 8 hrs) (AID 651713); settings: TMD8 lymphoma cells, caspase activation luminescence; caspase activation: at 46.1 µM (top of the series); further: potency means the concentration at half of the fitted maximal effect;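 on caspase activation: 0% = DMSO and 100% = 9.2 µM bortezomib caspase signal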
# How it was run: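 TMD8 cells (500/well) in phenol red-free RPMI with 5% FBS were treated with compounds for 8 h at 37C, 5% CO2. Caspase-Glo 3/7 luminescence was read after 15 min at room temperature and normalised to DMSO (0%) and 9.2 uM bortezomib (100%).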
# [3] = target: Tyrosine-protein kinase Yes (Homo sapiens) (UniProt P07947); assay: qHTS for small molecule inhibitors of Yes1 kinase: Primary Screen (AID 686947); further: nearly all actives have a fitted effect of over 60% in size; further: potency means the concentration at half of the fitted maximal effect
# How it was run: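 ADP-Glo luminescence readout; final 4 nM Yes1, 0.1 mM ATP, 0.3 mg/mL poly(E4Y), Tris pH 7.5, MgCl2, DTT, Brij-35. 20 min compound preincubation, 60 min reaction at RT. Normalized to DMSO wells with and without enzyme.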
# [4] = qHTS assay for small molecule agonists of the antioxidant response element (ARE) signaling pathway (AID 651741; active means well fitted activation curve with a large enough effect in the signal ratio; inconclusive means small, poorly fitted or top-dose-only effect, or effect the other way, or a change in a side signal; the % refers to the signal ratio; further: potency means the concentration at half of the fitted maximal effect; on activation: % of control where 0% means no effect); settings: HepG2 ARE-bla reporter, beta-lactamase FRET ratio, 16 h; activation: at 96 µM (top of the series)
# How it was run: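 HepG2 ARE-bla cells plated at 2,000 cells/well and incubated 5 h at 37 C/5% CO2 received 23 nL compound in DMSO. After 16 h at 37 C, LiveBLAzer B/G FRET substrate was applied for 2 h at room temperature and fluorescence read.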
# [5] = qHTS assay for small molecule activators of the p53 signaling pathway (AID 651743; active means well fitted activation curve with a large enough effect in the signal ratio, not every such curve was filed as active; inconclusive means small, poorly fitted or top-dose-only effect, or a change in a side signal; the % refers to the signal ratio; further: potency means the concentration at half of the fitted maximal effect; on activation: % of control where 0% means no effect); settings: HCT-116 p53RE-bla, beta-lactamase FRET ratio, 16 h; activation: hits give high values
# How it was run: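 HCT-116 p53RE-bla, 4,000 cells/well; 5 h settle; cpd/DMSO 16 h, 37 C; LiveBLAzer B/G 2 h RT; fluorescence intensity.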
# [6] = qHTS assay for small molecule activators of the nuclear factor-kappa B (NF-kB) signaling pathway (AID 651749; active means well fitted activation curve with a large enough effect in the signal ratio; inconclusive means small, poorly fitted or top-dose-only effect, or a change in a side signal; the % refers to the signal ratio; further: potency means the concentration at half of the fitted maximal effect); settings: NF-kB-bla ME-180 cells, beta-lactamase FRET ratio, 16 h; activation: hits give high values
# How it was run: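 Incubation lasted 16 hr at 37C in 5% CO2 after 23 nL compound addition to ME-180 NF-kB-bla cells. Activation appears as beta-lactamase-mediated FRET loss.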
# [7] = target: Arylsulfatase A (Homo sapiens) (UniProt P15289); assay: qHTS screen for enhancers of Arylsulfatase A (ASA1): LOPAC Validation Assay (AID 720538); settings: activity change, positive = activation: at 57.5 µM (top of the series)
# How it was run: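 First, ASA-I179S fibroblasts from an MLD patient adhered for 6 hrs. Next, compounds were added for 48h. Then pNCS substrate (0.5mM final) with lysis buffer reacted 14h at room temperature before NaOH stop and fluorescence measurement.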
# [8] = qHTS assay for small molecule disruptors of the mitochondrial membrane potential - 5 hr assay (AID 651755; calls by dose curve; further: on the % scale 0 is the no-effect control and ±100 the full control effect; nearly all actives have a fitted effect of over 40% in size); settings: JC-1-type ratio dye; ratio change, negative = disruption: at 92.2 µM (top of the series)
# How it was run: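 HepG2 cells (2,000/well), attached overnight, exposed to compound 5 hr at 37C, then Mito-MPS dye 30 min. Fluorescence read for monomers (490/535 nm) and aggregates (540/590 nm).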
# [9] = qHTS assay to identify small molecules that stimulate interleukin-8 (IL-8) secretion (AID 651758; active means well fitted activation curve with a large enough effect in the signal ratio; inconclusive means small, poorly fitted or top-dose-only effect, or effect the other way, or a change in a side signal; the % refers to the signal ratio; further: potency means the concentration at half of the fitted maximal effect; on activation: 0% is about no effect); settings: HTRF ratio (665/615); activation: at 92.2 µM (top of the series)
# How it was run: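 THP-1 cells (2000/well) exposed to compound 16 h at 37 C; secreted IL-8 then detected by HTRF with cryptate- and XL665-labelled anti-IL-8 antibody pair after 1-3 h at room temperature.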
# [10] = target: Nuclear receptor ROR-gamma (Homo sapiens) (UniProt P51449); assay: qHTS assay for small molecule antagonists of the retinoid-related orphan receptor gamma (ROR-gamma) signaling pathway (AID 651802); further: potency means the concentration at half of the fitted maximal effect; nearly all actives have a fitted effect of over 60% in size
# How it was run: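 CHO cells carrying TET-inducible ROR-gamma and an ROR response element–luciferase reporter were exposed to compound, then induced with doxycycline. After 16hr at 37C, luminescence was read; lower signal indicates antagonism.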
# [11] = qHTS assay for small molecule agonists of the antioxidant response element (ARE) signaling pathway measured by Nrf2-dependant transcriptional activity (AID 720636; active means well fitted curve in the direction sought with a large enough effect in the repeat runs; inconclusive means weak or mixed curves; inactive means no such curve, though single readings can be large; an effect the other way counts as inactive or inconclusive; further: % of control where 0% means no effect)
# How it was run: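 ARE-luc HepG2 cells carrying an Nrf2-responsive luciferase reporter, in medium with 1% dialyzed FBS, exposed to compound for 16 hr at 37 C, 5% CO2. Luminescence read 30 min after ONE-Glo addition.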
# [12] = qHTS assay for small molecule antagonists of the retinoid-related orphan receptor gamma (ROR-gamma) signaling pathway - cell viability counter screen (AID 720652; active means well fitted curve in the direction sought with a large enough effect in the repeat runs; inconclusive means weak or mixed curves; inactive means no such curve, though single readings can be large; an effect the other way counts as inactive or inconclusive;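 further: potency means the concentration at half of the fitted maximal effect; compound exposure lasted 16 hr before ATP read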)
# How it was run: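 Counter screen in CHO cells carrying TET-inducible ROR-gamma and an ROR response element-luciferase reporter; cells plated 5 hr, compound pinned, doxycycline added, then 16 hr at 37 C. Viability read as intracellular ATP by CellTiter-Glo luminescence.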
compound,measurement,setting,value
Cc1ccc(C(=O)N(CCCN)[C@@H](c2nc3cc(Cl)ccc3c(=O)n2Cc2ccccc2)C(C)C)cc1,Potency,[1],"inconclusive: 37.2 µM [activator, partial curve, poor fit]"
same,Potency,[2],"inconclusive: 33.2 µM [activator, single point]"
Cc1cc([C@@H](C)Nc2ccccc2C(=O)O)c2nc(N3CCOCC3)cc(=O)n2c1,Potency,[1],inactive
CCOc1cc(N2CCC(O)CC2)ccc1Nc1ncc2c(n1)N(C)c1ccccc1C(=O)N2C,Potency,[1],active: 20.9 µM
same,Potency,[2],"inconclusive: 20.9 µM [activator, partial curve]"
CCn1c(-c2nonc2N)nc2cnc(Oc3cccc(NC(=O)c4ccc(OCCN5CCOCC5)cc4)c3)cc21,Potency,[1],"inconclusive: 20.9 µM [activator, partial curve]"
same,Potency,[2],inactive
same,Potency,[3],"inconclusive: 34.5 µM [inhibitor, single point]"
COc1ccccc1[C@H](c1cccc2ccccc12)[C@@](C)(C#N)C(=O)N1CCC(c2cccc(C(F)(F)F)c2)CC1,Potency,[1],inactive
same,Potency,[3],inactive
C[C@@H](Oc1cc(-c2cnn(C3CCNCC3)c2)cnc1N)c1c(Cl)ccc(F)c1Cl,Potency,[1],"inconclusive: 29.6 µM [activator, single point]"
Cc1ccc(C(=O)Nc2cccc(C(F)(F)F)c2)cc1-c1ccc2nc(NCCN3CCOCC3)ncc2c1,Potency,[1],"inconclusive: 2.96 µM [activator, full curve]"
COc1cccc(OC)c1-c1cc(C(=O)NC2(C(=O)O)C3CC4CC(C3)CC2C4)nn1-c1ccnc2cc(Cl)ccc12 (stereo unspecified),Potency,[1],active: 23.5 µM
same,caspase activation,[2],inconclusive: 124% [activator]
CC[C@@]1(O)C(=O)OCc2c1cc1n(c2=O)Cc2cc3c(CN(C)C)c(O)ccc3nc2-1,Potency,[1],active: 0.0074 µM
same,Potency,[2],active: 1.48 µM
same,Potency,[3],"inconclusive: 61.3 µM [inhibitor, single point]"
CN(C)CCN(C)C(=O)c1ccc(NC(=O)Nc2ccc(-c3nc(N4CCOCC4)c4ccn(CC(F)(F)F)c4n3)cc2)cc1,Potency,[1],"inconclusive: 18.7 µM [activator, partial curve]"
same,Potency,[3],"inconclusive: 38.7 µM [inhibitor, single point]"
O=C(c1ccc(OCCN2CCCCC2)cc1)c1c(-c2ccc(O)cc2)sc2cc(O)ccc12,Potency,[4],"inconclusive: 54.5 µM [cytotoxic, side channel, partial curve]"
same,Potency,[5],"inconclusive: 70.8 µM [rising, single point]"
same,Potency,[6],"inconclusive: 44.7 µM [cytotoxic, partial curve]"
N[C@H](Cc1ccc(O)c(O)c1)C(=O)O,Potency,[4],"inconclusive: 68.6 µM [activator, single point]"
CC(C)Oc1cc(Nc2nc(N[C@@H](C)c3ccc(F)cn3)ncc2Cl)[nH]n1,Potency,[2],"inconclusive: 18.7 µM [activator, single point]"
C[C@]12C=CC(=O)C=C1CC[C@H]1[C@@H]3C[C@@H](O)[C@](O)(C(=O)CO)[C@@]3(C)C[C@H](O)[C@@]12F,Potency,[4],inactive
CC#C[C@]1(O)CC[C@H]2[C@@H]3CCC4=CC(=O)CCC4=C3[C@@H](c3ccc(N(C)C)cc3)C[C@@]21C,Potency,[4],active: 21.7 µM
same,activation,[5],inconclusive: 22.6%
same,Potency,[7],inactive
N=C(N)c1ccc(OCCCCCOc2ccc(C(=N)N)cc2)cc1,Potency,[4],"inconclusive: 6.68 µM [activator, partial curve]"
same,activation,[4],inconclusive: -14.1%
same,"ratio change, negative = disruption",[8],inconclusive: -28.7%
same,activation,[9],inconclusive: -14.8%
same,Potency,[10],"inconclusive: 18.8 µM [inhibitor, full curve, poor fit]"
same,Potency,[11],inactive
O=C(Nc1ccc(Cl)cc1)Nc1ccc(Cl)c(Cl)c1,activation,[4],inconclusive: 6.21%
O=CCCCC=O,Potency,[4],"inconclusive: 66.8 µM [activator, single point]"
same,Potency,[5],active: 35.5 µM
same,Potency,[9],"inconclusive: 75 µM [inhibitor, single point]"
same,Potency,[10],"inconclusive: 33.5 µM [inhibitor, full curve, poor fit]"
same,Potency,[12],"inconclusive: 33.5 µM [cytotoxic, single point]"

# Two entries from above, as tab-separated lines.
compound	measurement	setting	value
CCOc1cc(N2CCC(O)CC2)ccc1Nc1ncc2c(n1)N(C)c1ccccc1C(=O)N2C	Potency	[1]	active: 20.9 µM
same	Potency	[2]	inconclusive: 20.9 µM [activator, partial curve]
